Results deposited as PubChem BioAssay AID504791 (Drosophila RNAi Screening Center, 2011)
Purpose: 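Genes whose knock-down strengthens or weakens small-RNA reporter silencing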 (primary screen). System: Drosophila S2-derived reporter cells. Reagent: long dsRNA against Drosophila genes, about 150-250 ng dsRNA per well (siRNA assay); about 80-120 ng (miRNA assay). Duration: about 5 days (siRNA assay); about 4 days (miRNA assay). Challenge: copper sulfate induction of reporters: 25 µM (siRNA assay); 200 mM stated (miRNA assay), 1-2 days before reading. Measurement: 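Dual luciferase assay: Renilla to firefly signal ratio in each well, scaled to the mean ratio of its plate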. Direction: siRNA reporter hit score: higher = 3 marks a strong hit with raised ratio; -3 a strong hit with lowered ratio. Units: stable assay Renilla, run 1 in luminescence; stable assay firefly, run 1 in luminescence. Active means: 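a well was a first-pass pick when its plate-scaled ratio rose above 1.5 (siRNA assay) or 1.6 (miRNA assay), or dropped below 0.6; a gene counted only if two separate dsRNAs agreed on retest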.
In all, the deposit lists about 23,000 reagents; this is an unselected part of those that have a named target and a result. In the full data, 199 (0.86%) were called active. 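Plate-scaled ratios behind the calls are not deposited; printed light signals are raw; many rows marked increased or decreased are still called inactive.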 Unmarked entries are inactive.

Knock-down of her [DRSC03543] gave: stable assay Renilla, run 1 = 14244; stable assay firefly, run 1 = 2.06e6.
Knock-down of CG31710 [DRSC01089] resulted in: stable assay Renilla, run 1 = 4731; stable assay firefly, run 1 = 3.81e5.
CG31710 [DRSC22863] gave stable assay Renilla, run 1 = 5163; stable assay firefly, run 1 = 5.22e5.
With knock-down of AANATL3 [DRSC02089] the results were stable assay Renilla, run 1 = 6750; stable assay firefly, run 1 = 3.05e5.
After knock-down of Idh3a [DRSC19446], the record shows stable assay Renilla, run 1 = 5139; stable assay firefly, run 1 = 3.62e5.
After knock-down of Su(var)3-7 [DRSC16872] the results were stable assay Renilla, run 1 = 7367; stable assay firefly, run 1 = 3.54e5.
After knock-down of Marf1 [DRSC03747], the screen gave stable assay Renilla, run 1 = 7430; stable assay firefly, run 1 = 4.50e5.
With knock-down of Marf1 [DRSC03774], the record shows stable assay Renilla, run 1 = 5159; stable assay firefly, run 1 = 2.90e5.
PH4alphaSG1 [DRSC15080] showed stable assay Renilla, run 1 = 6807; stable assay firefly, run 1 = 4.61e5.
Depletion of CG2209 [DRSC19843] resulted in: stable assay Renilla, run 1 = 5810; stable assay firefly, run 1 = 4.91e5.
AlaRS [DRSC01851] gave stable assay Renilla, run 1 = 12020; stable assay firefly, run 1 = 1.30e6.
MED4 [DRSC11014] gave siRNA reporter hit score -3; stable assay Renilla, run 1 = 5483; stable assay firefly, run 1 = 2.67e5.
